Results published in the supplement of paper PMC10849652.
The other results are listed elsewhere or left out.

Chains of the proteins cited; added tags and fusions are not shown. Lines headed by an entry give the natural chain unless they say otherwise; changes in a name come on top.
UniProt O43169: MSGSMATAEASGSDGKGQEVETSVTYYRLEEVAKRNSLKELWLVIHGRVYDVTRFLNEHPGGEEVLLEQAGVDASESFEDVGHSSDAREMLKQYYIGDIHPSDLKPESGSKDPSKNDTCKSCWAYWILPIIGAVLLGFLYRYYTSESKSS
UniProt P04080: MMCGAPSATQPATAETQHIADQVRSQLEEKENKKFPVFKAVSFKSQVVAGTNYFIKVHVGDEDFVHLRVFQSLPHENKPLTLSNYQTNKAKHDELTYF
UniProt O60716: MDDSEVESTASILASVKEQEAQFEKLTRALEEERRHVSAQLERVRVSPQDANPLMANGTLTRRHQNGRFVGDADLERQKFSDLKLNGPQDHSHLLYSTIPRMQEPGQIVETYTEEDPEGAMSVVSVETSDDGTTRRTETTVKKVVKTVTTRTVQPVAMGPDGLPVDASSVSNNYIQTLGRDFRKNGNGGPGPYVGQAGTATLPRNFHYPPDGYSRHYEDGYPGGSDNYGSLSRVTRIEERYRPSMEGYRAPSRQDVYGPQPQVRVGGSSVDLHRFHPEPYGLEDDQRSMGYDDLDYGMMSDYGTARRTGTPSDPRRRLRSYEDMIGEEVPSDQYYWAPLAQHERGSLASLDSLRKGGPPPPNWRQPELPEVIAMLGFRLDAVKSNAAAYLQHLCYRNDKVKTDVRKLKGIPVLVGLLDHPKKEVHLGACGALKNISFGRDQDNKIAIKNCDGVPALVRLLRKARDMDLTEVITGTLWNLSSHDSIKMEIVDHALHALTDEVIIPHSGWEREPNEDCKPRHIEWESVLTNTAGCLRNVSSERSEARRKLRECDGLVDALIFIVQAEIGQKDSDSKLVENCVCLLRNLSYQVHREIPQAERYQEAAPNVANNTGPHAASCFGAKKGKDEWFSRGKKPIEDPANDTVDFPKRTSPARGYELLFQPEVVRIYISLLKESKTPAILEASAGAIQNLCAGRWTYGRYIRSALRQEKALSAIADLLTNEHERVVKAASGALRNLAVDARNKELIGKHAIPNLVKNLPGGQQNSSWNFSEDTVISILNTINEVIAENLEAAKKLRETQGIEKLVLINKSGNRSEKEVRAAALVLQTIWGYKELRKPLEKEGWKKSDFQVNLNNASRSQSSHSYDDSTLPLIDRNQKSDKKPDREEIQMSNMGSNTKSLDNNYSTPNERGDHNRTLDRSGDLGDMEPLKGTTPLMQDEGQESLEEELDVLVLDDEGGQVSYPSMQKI
UniProt Q9BQA9: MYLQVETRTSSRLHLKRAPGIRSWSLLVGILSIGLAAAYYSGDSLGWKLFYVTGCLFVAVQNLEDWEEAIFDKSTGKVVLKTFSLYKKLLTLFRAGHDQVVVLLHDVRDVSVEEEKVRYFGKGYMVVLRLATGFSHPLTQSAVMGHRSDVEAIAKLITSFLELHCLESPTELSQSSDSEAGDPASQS
UniProt Q9P0U4, whole entry, looked up: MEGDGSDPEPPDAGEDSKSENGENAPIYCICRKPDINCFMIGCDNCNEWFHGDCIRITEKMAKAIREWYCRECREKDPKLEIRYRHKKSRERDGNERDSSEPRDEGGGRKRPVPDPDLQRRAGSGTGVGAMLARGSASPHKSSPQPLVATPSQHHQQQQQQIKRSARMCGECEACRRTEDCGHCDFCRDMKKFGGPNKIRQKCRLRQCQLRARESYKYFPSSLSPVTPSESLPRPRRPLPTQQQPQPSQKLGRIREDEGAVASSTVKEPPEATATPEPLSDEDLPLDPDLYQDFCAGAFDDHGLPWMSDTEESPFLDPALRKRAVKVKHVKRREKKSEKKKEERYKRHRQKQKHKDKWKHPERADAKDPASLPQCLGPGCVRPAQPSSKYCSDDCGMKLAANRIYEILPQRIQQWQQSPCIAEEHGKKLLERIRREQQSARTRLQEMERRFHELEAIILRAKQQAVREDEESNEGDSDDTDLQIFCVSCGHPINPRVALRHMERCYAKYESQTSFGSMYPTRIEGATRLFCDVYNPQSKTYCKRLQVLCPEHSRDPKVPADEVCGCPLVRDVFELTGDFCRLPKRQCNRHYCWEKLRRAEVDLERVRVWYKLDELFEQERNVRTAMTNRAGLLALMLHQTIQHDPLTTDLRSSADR
UniProt Q7L576: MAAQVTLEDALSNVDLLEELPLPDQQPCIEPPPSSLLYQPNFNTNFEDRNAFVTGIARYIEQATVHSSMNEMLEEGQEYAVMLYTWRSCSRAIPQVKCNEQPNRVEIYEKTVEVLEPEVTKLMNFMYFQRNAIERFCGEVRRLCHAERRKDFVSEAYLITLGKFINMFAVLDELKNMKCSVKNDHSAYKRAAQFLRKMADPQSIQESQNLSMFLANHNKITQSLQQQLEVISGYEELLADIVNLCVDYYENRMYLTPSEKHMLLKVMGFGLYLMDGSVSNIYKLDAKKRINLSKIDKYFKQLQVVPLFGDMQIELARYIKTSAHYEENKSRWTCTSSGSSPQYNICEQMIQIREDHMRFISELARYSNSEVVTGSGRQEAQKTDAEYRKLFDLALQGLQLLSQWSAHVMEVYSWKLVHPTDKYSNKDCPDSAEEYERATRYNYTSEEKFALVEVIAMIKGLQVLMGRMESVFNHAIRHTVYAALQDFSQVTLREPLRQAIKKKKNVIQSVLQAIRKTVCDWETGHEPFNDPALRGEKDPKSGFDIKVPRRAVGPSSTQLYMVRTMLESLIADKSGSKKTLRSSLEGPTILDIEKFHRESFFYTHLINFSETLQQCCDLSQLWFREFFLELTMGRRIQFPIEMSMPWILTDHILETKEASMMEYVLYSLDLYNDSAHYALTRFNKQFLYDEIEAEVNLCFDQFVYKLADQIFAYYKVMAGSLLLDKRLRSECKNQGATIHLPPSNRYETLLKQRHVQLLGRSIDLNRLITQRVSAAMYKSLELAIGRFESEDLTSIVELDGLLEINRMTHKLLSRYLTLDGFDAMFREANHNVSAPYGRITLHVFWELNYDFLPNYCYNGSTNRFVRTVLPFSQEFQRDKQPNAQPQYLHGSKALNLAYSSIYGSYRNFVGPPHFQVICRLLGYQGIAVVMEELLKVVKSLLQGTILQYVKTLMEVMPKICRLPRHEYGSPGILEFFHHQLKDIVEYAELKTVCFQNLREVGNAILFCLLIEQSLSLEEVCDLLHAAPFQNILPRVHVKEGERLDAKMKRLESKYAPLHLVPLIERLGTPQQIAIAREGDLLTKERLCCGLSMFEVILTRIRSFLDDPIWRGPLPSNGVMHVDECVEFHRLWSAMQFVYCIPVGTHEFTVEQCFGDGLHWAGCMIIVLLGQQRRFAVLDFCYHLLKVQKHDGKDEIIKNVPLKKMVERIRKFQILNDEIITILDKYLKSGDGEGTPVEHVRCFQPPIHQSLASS
UniProt P10619: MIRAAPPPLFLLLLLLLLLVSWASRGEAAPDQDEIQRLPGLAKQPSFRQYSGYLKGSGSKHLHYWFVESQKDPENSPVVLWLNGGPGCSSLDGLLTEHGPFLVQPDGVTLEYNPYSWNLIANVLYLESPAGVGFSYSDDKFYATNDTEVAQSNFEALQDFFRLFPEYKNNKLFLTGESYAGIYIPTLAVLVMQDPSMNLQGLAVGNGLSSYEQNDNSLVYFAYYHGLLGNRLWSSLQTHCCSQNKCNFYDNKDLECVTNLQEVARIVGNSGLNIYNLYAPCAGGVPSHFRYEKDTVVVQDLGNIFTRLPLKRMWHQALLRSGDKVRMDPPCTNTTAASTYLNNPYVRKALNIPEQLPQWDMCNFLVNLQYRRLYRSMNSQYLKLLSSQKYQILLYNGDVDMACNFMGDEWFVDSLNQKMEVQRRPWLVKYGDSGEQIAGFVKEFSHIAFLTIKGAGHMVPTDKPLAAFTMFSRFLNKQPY
UniProt Q6UW02: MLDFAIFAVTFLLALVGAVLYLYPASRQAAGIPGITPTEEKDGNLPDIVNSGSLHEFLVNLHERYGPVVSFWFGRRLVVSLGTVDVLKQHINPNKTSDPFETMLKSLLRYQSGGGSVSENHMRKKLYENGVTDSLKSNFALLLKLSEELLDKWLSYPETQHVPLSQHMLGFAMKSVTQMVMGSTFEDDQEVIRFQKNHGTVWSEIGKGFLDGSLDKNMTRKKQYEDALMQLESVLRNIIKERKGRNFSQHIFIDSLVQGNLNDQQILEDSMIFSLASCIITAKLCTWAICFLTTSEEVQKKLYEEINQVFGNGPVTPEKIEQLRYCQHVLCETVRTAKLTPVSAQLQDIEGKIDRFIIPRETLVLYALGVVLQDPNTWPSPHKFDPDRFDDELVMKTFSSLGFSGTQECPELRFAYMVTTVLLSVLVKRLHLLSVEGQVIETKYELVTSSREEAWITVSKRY
UniProt Q9UBR2: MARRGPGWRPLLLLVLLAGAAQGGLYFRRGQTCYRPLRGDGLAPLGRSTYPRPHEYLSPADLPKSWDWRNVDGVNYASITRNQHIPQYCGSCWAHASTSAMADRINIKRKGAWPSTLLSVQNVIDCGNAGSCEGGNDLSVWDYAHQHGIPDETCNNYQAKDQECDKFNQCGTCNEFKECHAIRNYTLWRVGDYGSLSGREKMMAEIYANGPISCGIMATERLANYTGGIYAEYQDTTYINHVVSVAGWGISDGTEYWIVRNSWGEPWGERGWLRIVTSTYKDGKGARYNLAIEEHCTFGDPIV
UniProt P78368: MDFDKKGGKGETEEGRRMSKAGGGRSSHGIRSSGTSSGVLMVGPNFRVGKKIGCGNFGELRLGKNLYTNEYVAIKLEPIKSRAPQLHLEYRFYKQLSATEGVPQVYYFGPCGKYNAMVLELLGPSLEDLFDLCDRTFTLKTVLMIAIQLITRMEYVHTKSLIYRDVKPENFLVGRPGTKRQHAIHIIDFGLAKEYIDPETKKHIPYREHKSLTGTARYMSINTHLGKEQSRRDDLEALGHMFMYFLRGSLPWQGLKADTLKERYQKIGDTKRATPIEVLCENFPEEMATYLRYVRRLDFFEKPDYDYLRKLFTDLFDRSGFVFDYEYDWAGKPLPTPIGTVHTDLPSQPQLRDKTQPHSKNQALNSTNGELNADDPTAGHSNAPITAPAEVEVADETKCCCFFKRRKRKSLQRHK
UniProt Q9P021, whole entry, looked up: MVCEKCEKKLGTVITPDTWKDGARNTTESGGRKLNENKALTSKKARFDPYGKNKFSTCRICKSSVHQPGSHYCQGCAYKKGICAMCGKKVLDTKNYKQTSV
UniProt Q6UXH1: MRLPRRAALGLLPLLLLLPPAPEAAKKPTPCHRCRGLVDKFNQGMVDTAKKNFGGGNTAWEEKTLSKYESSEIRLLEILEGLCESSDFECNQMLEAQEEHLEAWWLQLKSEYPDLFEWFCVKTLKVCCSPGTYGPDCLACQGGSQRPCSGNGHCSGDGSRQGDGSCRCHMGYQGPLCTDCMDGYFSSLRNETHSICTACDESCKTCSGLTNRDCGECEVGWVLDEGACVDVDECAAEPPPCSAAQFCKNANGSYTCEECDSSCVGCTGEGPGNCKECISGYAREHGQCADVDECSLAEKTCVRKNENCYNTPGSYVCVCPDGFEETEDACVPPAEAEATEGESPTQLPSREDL
UniProt P68400, whole entry, looked up: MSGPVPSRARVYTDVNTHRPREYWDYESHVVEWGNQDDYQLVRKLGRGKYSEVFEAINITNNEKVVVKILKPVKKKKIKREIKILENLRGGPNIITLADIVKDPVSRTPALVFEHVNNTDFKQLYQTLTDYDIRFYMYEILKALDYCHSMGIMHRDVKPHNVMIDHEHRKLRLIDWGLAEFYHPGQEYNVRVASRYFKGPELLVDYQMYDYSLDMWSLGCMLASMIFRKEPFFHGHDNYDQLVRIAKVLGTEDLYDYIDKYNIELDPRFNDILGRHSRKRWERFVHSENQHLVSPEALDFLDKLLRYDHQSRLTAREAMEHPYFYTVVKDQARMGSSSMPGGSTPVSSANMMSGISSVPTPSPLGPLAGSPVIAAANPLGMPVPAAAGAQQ
UniProt Q7Z7A3: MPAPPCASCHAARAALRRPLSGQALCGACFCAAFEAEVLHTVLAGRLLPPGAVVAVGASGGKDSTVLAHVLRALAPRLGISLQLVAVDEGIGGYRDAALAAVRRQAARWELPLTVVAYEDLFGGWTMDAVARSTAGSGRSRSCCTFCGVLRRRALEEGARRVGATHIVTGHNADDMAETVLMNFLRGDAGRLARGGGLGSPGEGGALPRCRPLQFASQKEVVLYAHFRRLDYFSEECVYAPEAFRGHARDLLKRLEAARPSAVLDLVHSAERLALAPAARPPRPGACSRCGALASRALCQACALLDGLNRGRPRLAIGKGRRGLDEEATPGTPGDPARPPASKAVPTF
UniProt Q05048: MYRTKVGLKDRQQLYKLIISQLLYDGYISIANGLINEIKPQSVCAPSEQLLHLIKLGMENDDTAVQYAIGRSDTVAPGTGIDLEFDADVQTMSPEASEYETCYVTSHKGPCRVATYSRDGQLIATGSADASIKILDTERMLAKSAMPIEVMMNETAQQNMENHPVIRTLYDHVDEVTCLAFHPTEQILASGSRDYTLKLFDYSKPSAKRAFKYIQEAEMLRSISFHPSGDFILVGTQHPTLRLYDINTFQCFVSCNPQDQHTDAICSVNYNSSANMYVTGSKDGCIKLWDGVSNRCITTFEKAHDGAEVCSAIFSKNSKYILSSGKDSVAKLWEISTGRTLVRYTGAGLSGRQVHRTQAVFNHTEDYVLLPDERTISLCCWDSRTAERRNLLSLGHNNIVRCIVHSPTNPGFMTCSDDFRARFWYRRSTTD

Tests used:
Assay in all cases: log2 fold change, soluble protein after heating vs DMSO (PISA); higher = thermal stabilisation; K562 lysate, 10 uM; active = over 0.2 and 3.5 SD of the protein, either way, in both replicates (recomputed)
ibrutinib = compound: C=CC(=O)N1CCC[C@@H](n2nc(-c3ccc(Oc4ccccc4)cc3)c3c(N)ncnc32)C1 [ibrutinib]
Summary of the method: (§1)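 Log-two fold change in thermal stability relative to solvent controls is reported from duplicates. For each sample, crude K562 extract from dounce-homogenised pellets in PBS pH 7.4 with 1 mM MgCl2, at 1 mg/mL protein, was treated with 10 μM compound for 30 min. Aliquots heated for 3 min across 48°C-58°C were pooled, brought to 0.5% NP-40 at 4°C and cleared at 21,000xg for 90 min. The supernatant was quantified by TMTpro 16plex LC-MS/MS with channel sums equalised.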

[1] = compound: CC(=O)c1cnc2ccc(-c3cc(Cl)c(O)c(Cl)c3)nc2c1N[C@H]1CC[C@H](CN(C)C)CC1
Summary of the method: as §1

ralimetinib = compound: CC(C)(C)Cn1c(N)nc2ccc(-c3[nH]c(C(C)(C)C)nc3-c3ccc(F)cc3)nc21 [ralimetinib]
Summary of the method: as §1

[2] = compound: CC(C)(O)CC(=O)NCCn1ccc2ncnc(Nc3ccc(Oc4cccc(C(F)(F)F)c4)c(Cl)c3)c21
Summary of the method: as §1

[3] = compound: CC(C)C1=C2N=C(C=C(N2N=C1)NCC3=CC=CC=C3)NCCCCCCN
Summary of the method: as §1

[4] = compound: CC1=C(C(CC(=O)N1)C2=CC=C(C=C2)C(F)(F)F)C(=O)NC3=C(C=C4C(=C3)C=NN4)F
Summary of the method: as §1

[5] = compound: CC1=C(C2=C(C=C1)C(=O)C3=CC=CC=C3N2CCCN)C
Summary of the method: as §1

[6] = compound: CC1=C(C=C(C=C1)NC(=O)C2=CC(=CC=C2)C(C)(C)C#N)NC3=CC4=C(C=C3)N=CN(C4=O)C
Summary of the method: as §1

[7] = compound: CC1=C(C=C(C=C1)NC(=O)C2=CC(=CC=C2)N(C)C)NC(=O)C3=CC=C(C=C3)O
Summary of the method: as §1

[8] = compound: CC1=CC=C(C=C1)SC2=C3C=C(SC3=CN=C2)C(=O)N
Summary of the method: as §1

| Target | log2 fold change (ibrutinib) | log2 fold change [1] | log2 fold change (ralimetinib) | log2 fold change [2] | log2 fold change [3] | log2 fold change [4] | log2 fold change [5] | log2 fold change [6] | log2 fold change [7] | log2 fold change [8] |
| --- | --- | --- | --- | --- | --- | --- | --- | --- | --- | --- |
| CYB5B (UniProt O43169) | inactive: 0.111 | inactive: -0.007 | inactive: 0.025 | inactive: -0.049 | inactive: -0.046 | inactive: 0.004 | inactive: -0.139 | inactive: 0.049 | inactive: -0.057 | inactive: 0.048 |
| CSTB (UniProt P04080) | inactive: 0.017 | inactive: -0.047 | inactive: 0.03 | inactive: -0.065 | inactive: 0.019 | inactive: -0.059 | inactive: 0.037 | inactive: 0.121 | inactive: 0.009 | inactive: 0.021 |
| CTNND1 isoform 3 (UniProt O60716) | inactive: 0.01 | inactive: 0.001 | inactive: -0.058 | inactive: -0.028 | inactive: 0 | inactive: 0.006 | inactive: -0.036 | inactive: -0.016 | inactive: 0.032 | inactive: -0.025 |
| CT47B1 (UniProt P0C2W7) | inactive: 0.009 | inactive: -0.034 | inactive: -0.097 | inactive: -0.072 | inactive: 0.003 | inactive: -0.075 | inactive: 0.003 | inactive: 0.111 | inactive: 0.088 | inactive: -0.119 |
| CYBC1 (UniProt Q9BQA9) | inactive: -0.024 | inactive: 0.005 | inactive: 0.093 | inactive: -0.201 | inactive: -0.002 | inactive: -0.015 | inactive: 0.045 | inactive: 0.108 | inactive: -0.069 | inactive: 0.019 |
| CSNK1E (UniProt P49674) | inactive: 0.029 | inactive: 0.287 | inactive: 0.208 | inactive: -0.026 | inactive: -0.04 | inactive: -0.012 | inactive: -0.064 | inactive: -0.049 | inactive: -0.028 | inactive: -0.039 |
| CYFIP2 (UniProt Q96F07) | inactive: 0 | inactive: -0.013 | inactive: 0.026 | inactive: -0.006 | inactive: -0.008 | inactive: -0.005 | inactive: 0.012 | inactive: -0.013 | inactive: -0.005 | inactive: -0.003 |
| CXXC1 isoform 2 (UniProt Q9P0U4) | inactive: -0.034 | inactive: -0.078 | inactive: 0.013 | inactive: -0.089 | inactive: -0.005 | inactive: -0.01 | inactive: 0.082 | inactive: 0.004 | inactive: 0.061 | inactive: -0.155 |
| CTSH (UniProt P09668) | inactive: 0.044 | inactive: -0.004 | inactive: -0.037 | inactive: -0.09 | inactive: -0.007 | inactive: 0.008 | inactive: 0.015 | inactive: -0.028 | inactive: 0.006 | inactive: -0.004 |
| CYFIP1 (UniProt Q7L576) | inactive: 0.006 | inactive: -0.003 | inactive: 0.014 | inactive: -0.002 | inactive: -0.024 | inactive: -0.004 | inactive: 0.011 | inactive: -0.012 | inactive: -0.019 | inactive: -0.008 |
| CTSA (UniProt P10619) | inactive: -0.066 | inactive: -0.008 | inactive: 0.01 | inactive: 0.017 | inactive: 0.027 | inactive: 0.018 | inactive: 0.048 | inactive: -0.003 | inactive: 0.034 | inactive: 0 |
| CTPS1 (UniProt P17812) | inactive: -0.045 | inactive: 0.01 | inactive: -0.017 | inactive: -0.015 | inactive: -0.022 | inactive: -0.012 | inactive: 0.024 | inactive: 0.004 | inactive: 0.017 | inactive: 0.02 |
| CTR9 (UniProt Q6PD62) | inactive: 0.023 | inactive: 0.003 | inactive: 0.016 | inactive: -0.003 | inactive: -0.001 | inactive: -0.005 | inactive: -0.005 | inactive: -0.008 | inactive: 0.013 | inactive: -0.014 |
| CYP20A1 (UniProt Q6UW02) | inactive: -0.022 | inactive: -0.023 | inactive: -0.011 | inactive: -0.075 | inactive: -0.022 | inactive: 0.017 | inactive: 0.021 | inactive: -0.015 | inactive: -0.021 | inactive: -0.01 |
| CTSZ (UniProt Q9UBR2) | inactive: -0.023 | inactive: 0.001 | inactive: -0.007 | inactive: -0.007 | inactive: -0.045 | inactive: 0.022 | inactive: 0.008 | inactive: -0.024 | inactive: 0.046 | inactive: -0.001 |
| CTSL (UniProt P07711) | inactive: 0.044 | inactive: 0.005 | inactive: -0.015 | inactive: 0.01 | inactive: 0.013 | inactive: -0.035 | inactive: 0.005 | inactive: -0.004 | inactive: -0.065 | inactive: 0.011 |
| CUL3 (UniProt Q13618) | inactive: -0.004 | inactive: -0.006 | inactive: -0.003 | inactive: -0.023 | inactive: -0.036 | inactive: -0.011 | inactive: 0.012 | inactive: 0 | inactive: -0.025 | inactive: 0.003 |
| CSNK1G2 (UniProt P78368) | inactive: -0.007 | inactive: 0.263 | inactive: 0.06 | inactive: -0.116 | inactive: -0.039 | inactive: -0.042 | inactive: 0.034 | inactive: -0.032 | inactive: -0.092 | inactive: -0.003 |
| CT47A1 (UniProt Q5JQC4) | inactive: -0.007 | inactive: -0.016 | inactive: 0.021 | inactive: -0.032 | inactive: 0.024 | inactive: -0.061 | inactive: -0.011 | inactive: -0.004 | inactive: 0.004 | inactive: -0.024 |
| CRIPT (UniProt Q9P021) | inactive: 0.126 | inactive: 0.037 | inactive: 0.032 | inactive: -0.043 | inactive: -0.095 | inactive: 0.085 | inactive: 0.004 | inactive: 0.037 | inactive: 0.002 | inactive: 0.05 |
| CSTF3 (UniProt Q12996) | inactive: -0.017 | inactive: 0.011 | inactive: -0.006 | inactive: 0.011 | inactive: 0.001 | inactive: -0.006 | inactive: 0.048 | inactive: 0 | inactive: -0.003 | inactive: 0.019 |
| CRELD2 isoform 5 (UniProt Q6UXH1) | inactive: -0.269 | inactive: 0.012 | inactive: -0.037 | inactive: 0.053 | inactive: -0.11 | inactive: 0.05 | inactive: -0.032 | inactive: 0.068 | inactive: -0.002 | inactive: -0.016 |
| CSNK2A1 (UniProt P68400) | inactive: -0.041 | active: 0.468 | inactive: 0.002 | inactive: -0.028 | inactive: -0.054 | inactive: -0.039 | inactive: 0.158 | inactive: -0.078 | inactive: -0.01 | inactive: 0.002 |
| CTU1 (UniProt Q7Z7A3) | inactive: -0.009 | inactive: 0.007 | inactive: 0.004 | inactive: -0.024 | inactive: -0.008 | inactive: 0.013 | inactive: -0.051 | inactive: -0.004 | inactive: 0.014 | inactive: 0.009 |
| CRLF3 (UniProt Q8IUI8) | inactive: -0.006 | inactive: -0.026 | inactive: 0 | inactive: -0.013 | inactive: 0.009 | inactive: -0.006 | inactive: -0.004 | inactive: 0.054 | inactive: 0.021 | inactive: -0.027 |
| CSTF1 (UniProt Q05048) | inactive: 0.101 | inactive: 0.003 | inactive: 0.03 | inactive: -0.005 | inactive: -0.015 | inactive: -0.005 | inactive: 0.028 | inactive: 0.022 | inactive: -0.015 | inactive: -0.002 |
| CRTAP (UniProt O75718) | inactive: 0.025 | inactive: 0.001 | inactive: 0.062 | inactive: 0.032 | inactive: -0.022 | inactive: 0.052 | inactive: 0.019 | inactive: -0.119 | inactive: -0.001 | inactive: 0.026 |

Only log2 fold change [2] (two entries from above):
Target | log2 fold change [2]
CSTF1 (UniProt Q05048) | inactive: -0.005
CRTAP (UniProt O75718) | inactive: 0.032
